The list is a part of this screen's results and no random one: it is rich in T/C values a quarter to a half above the control, in often repeated tests (any T/C) and in doses without a T/C. Other doses and runs of a compound stand elsewhere. T/C: endpoint of the treated group in % of that of the vehicle group. Some doses have a count of surviving animals in place of a T/C: the source files T/C as zero there, which appears to mark a toxic dose or a test without result, not a measured value. Some survivor counts are full or nearly so, which does not show that the dose was tolerated: survival well below the control is almost never listed, so the zero probably covers shortened survival too. Counts of survivors are from the toxicity check (mostly the fifth day) where no day follows; animals may have died later. Schedules are NCI's codes, read here as Q, the interval in days (D) or hours (H), X, the number of doses. Brackets with × say how often a value occurs here. Some doses were run more than once; the results are listed from low to high. Where survival is the endpoint, the PubChem record calls one and a half times the control and up active, and a quarter to a half above the control has no call in these data; cut-offs in other NCI protocols can differ.
System: CD2F1 mice, L1210 leukemia ip, survival T/C
Experiment: NCI In Vivo Anticancer Drug Screen. Data for tumor model L1210 Leukemia (intraperitoneal) in CD2F1 (CDF1) mice
Details: higher T/C = longer survival
Summary of the method: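 Read-out first: treated-group measurement over vehicle-control measurement, expressed as a ratio. Animals bore a transplanted tumor line and were dosed with compound or vehicle.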

[1] = T/C endpoint: mean survival time, dose: 400.0 mg/kg/injection, schedule: Q01DX009 (ip), vehicle: saline with Tween-80
[2] = T/C endpoint: mean survival time, dose: 200.0 mg/kg/injection, schedule: Q04DX003 (ip), vehicle: saline with Tween-80
[3] = T/C endpoint: mean survival time, dose: 400.0 mg/kg/injection, schedule: Q04DX003 (ip), vehicle: saline with Tween-80
[4] = T/C endpoint: mean survival time, dose: 200.0 mg/kg/injection, schedule: Q01DX001 (ip), vehicle: saline with Tween-80
[5] = T/C endpoint: mean survival time, dose: 400.0 mg/kg/injection, schedule: Q01DX001 (ip), vehicle: saline with Tween-80
[6] = T/C endpoint: mean survival time, dose: 40.0 mg/kg/injection, schedule: Q01DX009 (ip), vehicle: saline with Tween-80
[7] = T/C endpoint: mean survival time, dose: 80.0 mg/kg/injection, schedule: Q01DX009 (ip), vehicle: saline with Tween-80

COc1cc2c(c(OC)c1OC)-c1ccc(OC)c(=O)cc1[C@@H](N(C)C(C)=O)CC2
T/C (T/C endpoint: mean survival time, dose: 0.5 mg/kg/injection, schedule: Q01DX005 (ip), vehicle: Klucel (hydroxypropylcellulose) (HPC)): 132 % of control
survivor count (T/C endpoint: mean survival time, dose: 2.0 mg/kg/injection, schedule: Q01DX005 (ip), vehicle: Klucel (hydroxypropylcellulose) (HPC)): 0 of 6

CN(C)CCCN1c2ccccc2Sc2ccc(C(F)(F)F)cc21
survivor count (T/C endpoint: mean survival time, dose: 50.0 mg/kg/injection, schedule: Q01DX009 (ip), vehicle: saline): 3 of 6
survivor count (T/C endpoint: mean survival time, dose: 100.0 mg/kg/injection, schedule: Q01DX001 (ip), vehicle: saline): 1 of 6 and 3 of 6
survivor count (T/C endpoint: mean survival time, dose: 200.0 mg/kg/injection, schedule: Q01DX001 (ip), vehicle: saline): 0 of 6 (2×)
survivor count (T/C endpoint: mean survival time, dose: 400.0 mg/kg/injection, schedule: Q01DX001 (ip), vehicle: saline): 0 of 6

COC(=O)c1ccccc1Cn1c(C)cnc1C
survivor count (T/C endpoint: mean survival time, dose: 100.0 mg/kg/injection, schedule: Q01DX009 (ip), vehicle: saline): 0 of 3
survivor count (T/C endpoint: mean survival time, dose: 200.0 mg/kg/injection, schedule: Q01DX009 (ip), vehicle: saline): 0 of 3

Cc1cc(=O)c(C(=O)NC/C(C#N)=C\c2ccccc2)c(C)[nH]1
survivor count (T/C endpoint: mean survival time, dose: 200.0 mg/kg/injection, schedule: Q04DX002 (ip), vehicle: saline with Tween-80): 1 of 3

N#CCCCN1C(=O)c2ccccc2C1=O
survivor count (T/C endpoint: mean survival time, dose: 400.0 mg/kg/injection, schedule: Q01DX009 (ip), vehicle: Klucel (hydroxypropylcellulose) (HPC)): 6 of 6

[O-][n+]1c(CN2CCCCC2)nc2cccc3c2c1-c1ccccc1-3
survivor count [1]: 3 of 6

CC[N+](C)(CC)Cc1cc(C(C)=O)c(C)o1
survivor count (T/C endpoint: median survival time, dose: 100.0 mg/kg/injection, schedule: Q04DX002 (ip), vehicle: saline): 3 of 3
survivor count (T/C endpoint: median survival time, dose: 200.0 mg/kg/injection, schedule: Q04DX002 (ip), vehicle: saline): 0 of 3
survivor count (T/C endpoint: median survival time, dose: 400.0 mg/kg/injection, schedule: Q04DX002 (ip), vehicle: saline): 0 of 3

COCC(O)CN1CCN(c2ccccc2C)CC1 (stereo not drawn)
survivor count [2]: 1 of 6
survivor count [3]: 0 of 6

CCCC(=O)O.CCCC(=O)O.CCCC(=O)O.CCCC(=O)O.O=P1(N(CCCl)CCCl)NCCCO1.O=P1(N(CCCl)CCCl)NCCCO1.[Rh].[Rh] (stereo not drawn)
survivor count (T/C endpoint: mean survival time, dose: 2.0 mg/kg/injection, schedule: Q01DX001 (ip), vehicle: olive oil, sesame oil, peanut oil): 0 of 6
survivor count (T/C endpoint: mean survival time, dose: 4.0 mg/kg/injection, schedule: Q01DX001 (ip), vehicle: olive oil, sesame oil, peanut oil): 1 of 6
survivor count (T/C endpoint: mean survival time, dose: 8.0 mg/kg/injection, schedule: Q01DX001 (ip), vehicle: olive oil, sesame oil, peanut oil): 0 of 6
survivor count (T/C endpoint: mean survival time, dose: 16.0 mg/kg/injection, schedule: Q01DX001 (ip), vehicle: olive oil, sesame oil, peanut oil): 0 of 6
survivor count (T/C endpoint: mean survival time, dose: 31.25 mg/kg/injection, schedule: Q01DX001 (ip), vehicle: olive oil, sesame oil, peanut oil): 0 of 6
survivor count (T/C endpoint: mean survival time, dose: 62.5 mg/kg/injection, schedule: Q01DX001 (ip), vehicle: olive oil, sesame oil, peanut oil): 0 of 6
survivor count (T/C endpoint: mean survival time, dose: 125.0 mg/kg/injection, schedule: Q01DX001 (ip), vehicle: olive oil, sesame oil, peanut oil): 0 of 6
survivor count (T/C endpoint: mean survival time, dose: 250.0 mg/kg/injection, schedule: Q01DX001 (ip), vehicle: olive oil, sesame oil, peanut oil): 0 of 6
survivor count (T/C endpoint: mean survival time, dose: 500.0 mg/kg/injection, schedule: Q01DX001 (ip), vehicle: olive oil, sesame oil, peanut oil): 0 of 6

COC(=O)c1ccccc1NC(=O)/C=C/C(=O)O
survivor count [3]: 0 of 6

O=C1C(=Cc2ccc([N+](=O)[O-])cc2)C(=O)c2ccccc21
survivor count (T/C endpoint: mean survival time, dose: 100.0 mg/kg/injection, schedule: Q04DX003 (ip), vehicle: Klucel (hydroxypropylcellulose) (HPC)): 6 of 6
survivor count (T/C endpoint: mean survival time, dose: 200.0 mg/kg/injection, schedule: Q04DX003 (ip), vehicle: Klucel (hydroxypropylcellulose) (HPC)): 6 of 6
survivor count (T/C endpoint: mean survival time, dose: 400.0 mg/kg/injection, schedule: Q04DX003 (ip), vehicle: Klucel (hydroxypropylcellulose) (HPC)): 6 of 6

O=C(COc1ccccc1)NC(=S)Nc1nccs1
survivor count (T/C endpoint: mean survival time, dose: 100.0 mg/kg/injection, schedule: Q04DX003 (ip), vehicle: saline with Tween-80): 3 of 6
survivor count [2]: 2 of 6
survivor count [1]: 1 of 3
survivor count (T/C endpoint: mean survival time, dose: 400.0 mg/kg/injection, schedule: Q04DX002 (ip), vehicle: saline with Tween-80): 0 of 3
survivor count [3]: 1 of 6

CNNCCCCC(=O)NC(C)C
survivor count (T/C endpoint: mean survival time, dose: 200.0 mg/kg/injection, schedule: Q04DX003 (ip), vehicle: saline): 2 of 6
survivor count (T/C endpoint: mean survival time, dose: 400.0 mg/kg/injection, schedule: Q04DX003 (ip), vehicle: saline): 1 of 6

CCCCCCCCCCCCCCCCOC(=O)c1cc([N+](=O)[O-])cc([N+](=O)[O-])c1Sc1ncnc2nc[nH]c12
T/C (T/C endpoint: mean survival time, dose: 62.5 mg/kg/injection, schedule: Q01DX005 (ip), vehicle: other): 127 % of control
T/C (T/C endpoint: mean survival time, dose: 100.0 mg/kg/injection, schedule: Q01DX005 (ip), vehicle: other): 140 % of control
T/C (T/C endpoint: mean survival time, dose: 125.0 mg/kg/injection, schedule: Q01DX005 (ip), vehicle: other): 141 % of control
T/C (T/C endpoint: mean survival time, dose: 200.0 mg/kg/injection, schedule: Q01DX005 (ip), vehicle: other): 134 and 136 % of control
survivor count (T/C endpoint: mean survival time, dose: 400.0 mg/kg/injection, schedule: Q01DX005 (ip), vehicle: other): 3 of 6

O=S(=O)(SC(Cl)(Cl)Cl)c1ccc(Cl)cc1
survivor count [4]: 1 of 6
survivor count [5]: 0 of 6

COc1cc2c(c(OC)c1OC)-c1ccc(SC)c(=O)cc1C(N=C(NC1OCC(OC(C)=O)C(OC(C)=O)C1OC(C)=O)SN(NC(=O)OCc1ccccc1)C(=O)OCc1ccccc1)CC2 (stereo not drawn)
survivor count [4]: 1 of 3
survivor count [5]: 1 of 3

OCC1OC([Se])C(O)C(O)C1O.[CH3][Sb][CH3] (stereo not drawn)
survivor count (T/C endpoint: mean survival time, dose: 100.0 mg/kg/injection, schedule: Q01DX009 (ip), vehicle: Klucel (hydroxypropylcellulose) (HPC)): 0 of 3
survivor count (T/C endpoint: mean survival time, dose: 200.0 mg/kg/injection, schedule: Q01DX009 (ip), vehicle: Klucel (hydroxypropylcellulose) (HPC)): 0 of 3

CC(CC(C)C(=O)O)C(=O)O (stereo not drawn)
survivor count [1]: 4 of 6

COc1cc2c(ccc3c4cc(OC)c(OC)cc4c[n+](C)c23)cc1O
T/C (T/C endpoint: mean survival time, dose: 20.0 mg/kg/injection, schedule: Q01DX009 (ip), vehicle: saline with Tween-80): 144 % of control
T/C (T/C endpoint: mean survival time, dose: 20.0 mg/kg/injection, schedule: Q01DX009 (ip), vehicle: saline): 146 % of control
T/C [6]: 134 % of control
T/C (T/C endpoint: mean survival time, dose: 40.0 mg/kg/injection, schedule: Q01DX009 (ip), vehicle: saline): 144 % of control
T/C [7]: 134 % of control

CCN(CC)CCNc1cc(C)nc(/N=C(\N)Nc2ccc(Br)c(C(F)(F)F)c2)n1
survivor count [2]: 5 of 6
survivor count [3]: 0 of 6

Cc1ccc2c(c1)N=C(Nc1ccccc1)N=S2(C)=O (stereo not drawn)
survivor count (T/C endpoint: mean survival time, dose: 100.0 mg/kg/injection, schedule: Q01DX009 (ip), vehicle: saline with Tween-80): 3 of 6
survivor count (T/C endpoint: mean survival time, dose: 200.0 mg/kg/injection, schedule: Q01DX009 (ip), vehicle: saline with Tween-80): 1 of 10

CCC1CN2C(=N1)c1ccccc1-c1cc(Cl)ccc12 (stereo not drawn)
T/C (T/C endpoint: mean survival time, dose: 40.0 mg/kg/injection, schedule: Q04DX003 (ip), vehicle: Klucel (hydroxypropylcellulose) (HPC)): 134 % of control

C=C[CH2][Sn]([CH2]C=C)([CH2]CCC)[CH2]CCC
survivor count (T/C endpoint: mean survival time, dose: 25.0 mg/kg/injection, schedule: Q04DX002 (ip), vehicle: saline with Tween-80): 0 of 3
survivor count (T/C endpoint: mean survival time, dose: 50.0 mg/kg/injection, schedule: Q04DX002 (ip), vehicle: saline with Tween-80): 0 of 3
survivor count (T/C endpoint: mean survival time, dose: 100.0 mg/kg/injection, schedule: Q04DX002 (ip), vehicle: saline with Tween-80): 0 of 3

Oc1cccc2c1NCCC2
survivor count [2]: 3 of 6
survivor count [3]: 0 of 6

COc1ccc([N+]2=Cc3cc(OC)c(OC)cc3CC2)cc1OC
survivor count (T/C endpoint: mean survival time, dose: 200.0 mg/kg/injection, schedule: Q01DX009 (ip), vehicle: water): 3 of 6

SCC1=NCCN1
survivor count (T/C endpoint: mean survival time, dose: 200.0 mg/kg/injection, schedule: Q04DX002 (ip), vehicle: saline): 0 of 3
survivor count (T/C endpoint: mean survival time, dose: 400.0 mg/kg/injection, schedule: Q04DX002 (ip), vehicle: saline): 0 of 3

O=[N+]([O-])/C=C/c1ccccc1
survivor count [6]: 0 of 6
survivor count [7]: 2 of 6

Reference: PubChem BioAssay AID256 (DTP/NCI, 2004)
